Laboratory results reported in paper PMC12956874.

What was measured:
[1] = target: T1, GAL4 BD-ScSgt2 1-346 (S. cerevisiae) (UniProt Q12118); assay: two-hybrid
T1 sequence: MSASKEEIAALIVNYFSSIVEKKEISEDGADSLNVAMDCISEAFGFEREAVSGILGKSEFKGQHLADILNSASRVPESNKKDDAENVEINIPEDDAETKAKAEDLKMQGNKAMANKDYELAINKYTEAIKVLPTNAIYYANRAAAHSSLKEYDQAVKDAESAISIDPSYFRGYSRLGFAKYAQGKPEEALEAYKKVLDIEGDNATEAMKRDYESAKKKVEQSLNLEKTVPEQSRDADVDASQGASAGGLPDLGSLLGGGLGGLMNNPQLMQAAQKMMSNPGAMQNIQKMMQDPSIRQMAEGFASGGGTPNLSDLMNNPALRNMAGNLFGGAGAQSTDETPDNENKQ

[2] = target: T2, PEX38 89-103 wildtype 15-mer peptide (BS2) (T. brucei); assay: peptide or protein array; both purified
T2 sequence (peptide): DDKFNAFLDLLRKKG

| Substance | binding [1] | binding [2] |
| --- | --- | --- |
| GAL4 AD-TbPEX19 1-285 (full-length) (T. brucei) | no binding |  |
| GAL4 AD-TbPEX19 31-285 (Δ30aa) (T. brucei) (domain or fragment) | no binding |  |
| GST-TbPEX19 1-285 (full-length) (T. brucei) |  | binds |

Results are given in words; binding and its absence hold for the method and conditions named. For part of these data: Binding can be weak; no strength is given. For part of these data: Tags and fused reporters may be left off the sequences shown.
